Data from PMC9800903.

Protein sequences, listed by entry. Tags and fused reporters are not part of them. Lines headed by an entry give the natural chain unless they say otherwise; changes in a name come on top.
UniProt O14980: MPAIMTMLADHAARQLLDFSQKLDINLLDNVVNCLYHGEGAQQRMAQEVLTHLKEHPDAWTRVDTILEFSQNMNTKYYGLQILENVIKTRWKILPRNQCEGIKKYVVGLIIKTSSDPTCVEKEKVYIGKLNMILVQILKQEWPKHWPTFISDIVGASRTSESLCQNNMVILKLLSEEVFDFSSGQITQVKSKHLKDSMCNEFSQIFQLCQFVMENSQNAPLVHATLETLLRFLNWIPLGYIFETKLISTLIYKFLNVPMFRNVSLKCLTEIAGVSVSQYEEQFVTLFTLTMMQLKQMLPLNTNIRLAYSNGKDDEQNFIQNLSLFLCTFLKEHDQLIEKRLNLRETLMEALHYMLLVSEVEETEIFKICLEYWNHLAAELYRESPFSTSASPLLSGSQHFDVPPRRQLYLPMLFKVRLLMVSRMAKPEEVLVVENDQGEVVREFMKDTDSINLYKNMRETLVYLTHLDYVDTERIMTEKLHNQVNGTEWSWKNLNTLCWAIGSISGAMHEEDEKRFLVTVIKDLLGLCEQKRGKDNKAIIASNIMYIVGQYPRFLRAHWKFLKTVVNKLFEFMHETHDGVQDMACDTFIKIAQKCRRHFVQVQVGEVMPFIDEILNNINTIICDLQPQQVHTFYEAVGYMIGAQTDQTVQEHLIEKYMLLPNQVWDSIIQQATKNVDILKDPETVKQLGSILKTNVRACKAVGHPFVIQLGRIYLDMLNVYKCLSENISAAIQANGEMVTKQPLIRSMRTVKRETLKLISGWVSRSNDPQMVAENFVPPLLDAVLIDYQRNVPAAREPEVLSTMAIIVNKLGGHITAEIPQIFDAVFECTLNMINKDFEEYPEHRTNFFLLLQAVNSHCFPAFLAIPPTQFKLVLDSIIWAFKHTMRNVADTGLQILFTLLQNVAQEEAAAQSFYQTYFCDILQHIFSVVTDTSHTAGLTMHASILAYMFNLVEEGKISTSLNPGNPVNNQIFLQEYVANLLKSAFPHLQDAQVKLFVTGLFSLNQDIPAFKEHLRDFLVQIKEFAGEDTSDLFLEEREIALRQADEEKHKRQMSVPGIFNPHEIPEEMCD
UniProt P47813: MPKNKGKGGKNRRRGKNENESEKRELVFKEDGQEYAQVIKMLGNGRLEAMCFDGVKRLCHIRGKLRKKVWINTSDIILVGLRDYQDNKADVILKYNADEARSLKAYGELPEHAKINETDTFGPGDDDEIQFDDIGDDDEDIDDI

Molecular target: Exportin 1 (human (endogenous in HEC-1A)) (UniProt O14980)
Assay: co-IP; HEC-1A whole-cell lysates in RIPA lysis buffer with protease inhibitors; protein A or G magnetic beads prebound with anti-EIF1AX, anti-FLAG, anti-IPO13, anti-XPO1 or normal IgG control; western blotting

- binding: no binding
Substance: EIF1AX-NLSmut (from UniProt P47813)

These are yes or no findings as the source states them, for the method shown. Binding seen in cells or lysates may run through a third protein.
